Assay results from article PMC7733318.
Results are given in words; binding and its absence hold for the method and conditions named. For part of these data: In cells and extracts the contact can be indirect. Some entries that bind do so weakly or less than the wild type.

By UniProt entry, the sequences of proteins in these tests, tags left out. Residues count along the entry.
UniProt P84022: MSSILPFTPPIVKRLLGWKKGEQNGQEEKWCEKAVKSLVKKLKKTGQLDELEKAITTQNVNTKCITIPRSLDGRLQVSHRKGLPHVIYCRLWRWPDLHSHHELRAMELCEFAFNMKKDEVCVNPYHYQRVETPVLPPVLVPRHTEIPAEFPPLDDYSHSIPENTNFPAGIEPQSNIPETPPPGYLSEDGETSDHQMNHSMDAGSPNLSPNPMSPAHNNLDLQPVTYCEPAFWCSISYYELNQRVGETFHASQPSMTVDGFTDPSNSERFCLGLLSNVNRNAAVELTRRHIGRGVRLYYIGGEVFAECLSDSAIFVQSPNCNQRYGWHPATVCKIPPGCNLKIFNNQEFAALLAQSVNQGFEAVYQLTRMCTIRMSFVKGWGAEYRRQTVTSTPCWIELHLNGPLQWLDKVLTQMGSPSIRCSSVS
UniProt Q15796: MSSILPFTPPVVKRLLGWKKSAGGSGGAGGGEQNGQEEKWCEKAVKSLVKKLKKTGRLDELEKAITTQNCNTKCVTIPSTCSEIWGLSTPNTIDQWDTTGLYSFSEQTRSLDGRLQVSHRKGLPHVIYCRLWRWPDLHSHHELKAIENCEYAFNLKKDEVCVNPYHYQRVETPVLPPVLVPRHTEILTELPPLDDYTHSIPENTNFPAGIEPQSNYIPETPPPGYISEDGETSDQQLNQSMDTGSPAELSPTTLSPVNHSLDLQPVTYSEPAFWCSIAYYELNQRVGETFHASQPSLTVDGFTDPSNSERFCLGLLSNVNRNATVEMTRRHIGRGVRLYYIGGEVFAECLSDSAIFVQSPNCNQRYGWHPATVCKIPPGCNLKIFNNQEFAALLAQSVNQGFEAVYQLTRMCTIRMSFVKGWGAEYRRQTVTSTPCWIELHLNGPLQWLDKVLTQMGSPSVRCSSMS
UniProt Q13485: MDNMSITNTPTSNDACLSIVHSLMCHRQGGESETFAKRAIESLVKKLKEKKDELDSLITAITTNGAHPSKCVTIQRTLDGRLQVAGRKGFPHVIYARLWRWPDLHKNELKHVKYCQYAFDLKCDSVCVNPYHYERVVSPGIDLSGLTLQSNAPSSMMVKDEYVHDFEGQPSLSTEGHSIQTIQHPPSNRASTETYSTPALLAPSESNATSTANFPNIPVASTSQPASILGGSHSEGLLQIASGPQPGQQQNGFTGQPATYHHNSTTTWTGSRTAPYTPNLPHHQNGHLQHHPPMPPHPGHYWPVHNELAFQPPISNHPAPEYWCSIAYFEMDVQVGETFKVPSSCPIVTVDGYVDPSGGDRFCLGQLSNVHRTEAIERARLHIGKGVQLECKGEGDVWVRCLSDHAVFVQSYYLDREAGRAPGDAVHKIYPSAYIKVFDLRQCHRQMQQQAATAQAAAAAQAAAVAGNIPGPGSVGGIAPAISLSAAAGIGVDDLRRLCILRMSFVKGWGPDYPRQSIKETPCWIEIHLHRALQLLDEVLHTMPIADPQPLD
UniProt Q00887, residues 35-426: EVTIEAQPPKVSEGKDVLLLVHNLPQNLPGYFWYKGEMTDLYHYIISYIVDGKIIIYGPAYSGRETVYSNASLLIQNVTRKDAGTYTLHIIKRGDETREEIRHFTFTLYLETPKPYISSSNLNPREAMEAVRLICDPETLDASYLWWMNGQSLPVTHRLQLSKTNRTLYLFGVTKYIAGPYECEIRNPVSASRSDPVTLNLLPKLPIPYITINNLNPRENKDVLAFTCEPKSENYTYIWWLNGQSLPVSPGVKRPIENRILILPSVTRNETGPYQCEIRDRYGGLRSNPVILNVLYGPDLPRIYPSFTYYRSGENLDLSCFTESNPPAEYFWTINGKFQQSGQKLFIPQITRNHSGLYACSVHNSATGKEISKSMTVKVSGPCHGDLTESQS

Legend:
Flag-Smad3 = Flag-Smad3 (UniProt P84022); test: co-IP; Flag-Smad2/3/4 and HA-PSG9 cotransfected into HEK293T cells; IP with an anti-Flag antibody, immunoblotting with the indicated antibodies
Flag-Smad2 = Flag-Smad2 (UniProt Q15796); test: as above
Flag-Smad4 = Flag-Smad4 (UniProt Q13485); test: as above
GST-Smad3 = GST-Smad3 (UniProt P84022); test: pull-down; GST pull-down with purified GST-Smad2/3/4 and His-PSG9; both purified
GST-Smad4 = GST-Smad4 (UniProt Q13485); test: as above
GST-Smad2 = GST-Smad2 (UniProt Q15796); test: as above

Measured: binding

HA-PSG9 (pregnancy-specific glycoprotein 9) (from UniProt Q00887 35-426)
binds: Flag-Smad3 | Flag-Smad2 | Flag-Smad4

His-PSG9 (from UniProt Q00887 35-426)
binds: GST-Smad3 | GST-Smad4 | GST-Smad2
